## Results of single-concentration screens

Amino acid sequences for entries named in this document (tags omitted).
UniProt I6X8D2, whole entry: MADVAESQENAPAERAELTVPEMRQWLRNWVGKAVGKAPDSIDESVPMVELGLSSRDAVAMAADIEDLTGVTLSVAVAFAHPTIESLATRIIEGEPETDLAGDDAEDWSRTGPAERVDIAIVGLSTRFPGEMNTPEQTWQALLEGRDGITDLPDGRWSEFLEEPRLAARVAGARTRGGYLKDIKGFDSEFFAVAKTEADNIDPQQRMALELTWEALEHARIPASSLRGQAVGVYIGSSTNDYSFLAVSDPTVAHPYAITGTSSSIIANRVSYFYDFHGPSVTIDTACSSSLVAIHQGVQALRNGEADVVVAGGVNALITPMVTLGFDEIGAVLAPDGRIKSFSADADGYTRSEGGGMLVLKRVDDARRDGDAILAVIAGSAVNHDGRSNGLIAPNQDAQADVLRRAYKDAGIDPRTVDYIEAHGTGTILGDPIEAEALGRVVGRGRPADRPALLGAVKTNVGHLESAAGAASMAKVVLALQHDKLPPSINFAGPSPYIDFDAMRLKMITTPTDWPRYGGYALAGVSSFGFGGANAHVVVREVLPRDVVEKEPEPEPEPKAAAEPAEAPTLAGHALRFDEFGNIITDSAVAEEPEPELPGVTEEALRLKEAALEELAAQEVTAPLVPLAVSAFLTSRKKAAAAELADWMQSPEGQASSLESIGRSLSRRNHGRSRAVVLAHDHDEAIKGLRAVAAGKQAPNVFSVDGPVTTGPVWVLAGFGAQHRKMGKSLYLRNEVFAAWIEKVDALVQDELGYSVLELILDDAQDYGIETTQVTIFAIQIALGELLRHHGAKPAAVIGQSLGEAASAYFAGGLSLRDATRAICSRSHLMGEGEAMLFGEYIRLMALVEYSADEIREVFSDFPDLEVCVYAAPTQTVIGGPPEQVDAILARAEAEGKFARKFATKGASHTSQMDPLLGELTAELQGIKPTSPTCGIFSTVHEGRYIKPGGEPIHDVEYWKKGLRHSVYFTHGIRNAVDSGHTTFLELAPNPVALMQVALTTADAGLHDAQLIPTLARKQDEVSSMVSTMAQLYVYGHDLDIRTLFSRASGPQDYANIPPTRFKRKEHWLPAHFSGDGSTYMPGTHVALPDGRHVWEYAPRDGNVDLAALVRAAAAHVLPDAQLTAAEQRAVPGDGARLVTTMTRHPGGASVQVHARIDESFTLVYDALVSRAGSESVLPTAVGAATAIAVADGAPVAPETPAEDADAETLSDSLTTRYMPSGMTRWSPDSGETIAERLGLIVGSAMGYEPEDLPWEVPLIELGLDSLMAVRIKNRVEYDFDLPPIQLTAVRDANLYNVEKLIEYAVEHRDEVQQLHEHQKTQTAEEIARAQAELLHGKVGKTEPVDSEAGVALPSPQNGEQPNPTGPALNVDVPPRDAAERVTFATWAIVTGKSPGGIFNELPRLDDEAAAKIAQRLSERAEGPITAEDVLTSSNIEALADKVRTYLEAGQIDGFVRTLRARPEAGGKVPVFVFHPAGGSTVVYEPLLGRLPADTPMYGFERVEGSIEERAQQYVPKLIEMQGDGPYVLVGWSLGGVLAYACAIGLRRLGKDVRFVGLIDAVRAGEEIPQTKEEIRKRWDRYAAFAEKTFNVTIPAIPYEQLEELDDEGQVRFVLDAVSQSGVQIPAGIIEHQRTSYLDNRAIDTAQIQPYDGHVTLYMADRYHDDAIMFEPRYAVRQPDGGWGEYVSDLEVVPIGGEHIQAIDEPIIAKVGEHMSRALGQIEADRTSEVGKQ

Results are given as percent effect. How 0% and 100% were set is not recorded. Most values in the screen are low, and negative values occur. Compounds were drawn at random from those tested, without regard to their results.

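Polyketide synthase Pks13, Mycobacterium tuberculosis (UniProt I6X8D2). Enzyme assay of the thioesterase domain of polyketide synthase 13; the read-out is not stated. Concentration: 30 µM. The record gives no direction; the compounds picked for IC50 retests had high values, so higher reads as stronger inhibition. About 67,000 compounds were tested under these conditions; 0.46% (about 300) showed 50% or more at least once.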

{"smiles": "O=C(c1cn2cc(Cl)ccc2n1)N1CCC(CCn2cccn2)CC1", "Percent Effect": 6.214}
{"smiles": "CN(C)c1ccc(C(=O)N2CCCC2c2cnn(C)c2)cn1", "stereo": "stereo not shown", "Percent Effect": -8.664}
{"smiles": "Cn1ccnc1CNC(=O)N1CCCC(Cc2nccn2C)C1", "stereo": "stereo not shown", "Percent Effect": -7.895}
{"smiles": "CCCNC(=O)CC1OCCc2ccsc21", "stereo": "stereo not shown", "Percent Effect": -1.586}
{"smiles": "Cc1ccnc(NS(=O)(=O)c2cc(C(N)=O)n(C)c2)c1", "Percent Effect": -23.67}
{"smiles": "CCCc1nc2c(c(C)c(C)n2Cc2ccncc2)c(N)c1CC", "Percent Effect": -27.52}
{"smiles": "O=C(N[C@H]1CN[C@H]2CCCO[C@H]21)c1cccnc1", "Percent Effect": -17.58}
{"smiles": "Cc1ccc(O)c(CN2CCc3nc(-c4cccnc4)nc(O)c3C2)c1", "Percent Effect": -4.746}
{"smiles": "CC(C(=O)Nc1cccc(Cl)c1SC(F)F)S(C)(=O)=O", "stereo": "stereo not shown", "Percent Effect": -15.34}
{"smiles": "Cc1cncc(C(=O)N2C[C@@H]3CN(S(C)(=O)=O)CCO[C@@H]3C2)c1", "Percent Effect": -11.44}
{"smiles": "Cc1cc(NC(=O)CNC(C)(C)c2ccc3c(c2)OCCO3)no1", "Percent Effect": -19.56}
{"smiles": "COC(=O)c1ccc(OCC(=O)N(C)Cc2ccsc2)c(OC)c1", "Percent Effect": -32.05}
{"smiles": "Cc1cnc(N2CCO[C@@H]3CC(COCc4cccnc4)C[C@H]32)nc1", "stereo": "stereo partly shown", "Percent Effect": 2.1}
{"smiles": "O=C(Nc1cc(C(F)(F)F)c[nH]c1=O)C1CCCNC1", "stereo": "stereo not shown", "Percent Effect": -2.866}
{"smiles": "CC(=O)N1CCC(N2CCC(c3nc(C)cc(C)n3)C2)CC1", "stereo": "stereo not shown", "Percent Effect": -1.385}
{"smiles": "Cc1cccc(CN2CCc3ncnc(-c4ccsc4)c3CC2)n1", "Percent Effect": -12.43}
{"smiles": "Cc1cc(CCC2CN(CC3(O)CCCCC3)CCO2)ncn1", "stereo": "stereo not shown", "Percent Effect": -20.12}
{"smiles": "CC(C)Oc1ncnc2c1CCN(Cc1ccco1)CC2", "Percent Effect": -34.25}
{"smiles": "COc1cc(Cl)c(NC(=O)NCCn2cccc2)cc1OC", "Percent Effect": -22.36}
{"smiles": "COC(=O)C(C)(C)S(=O)(=O)c1ccc(Br)cc1", "Percent Effect": -27.71}
{"smiles": "CO[C@@H]1CO[C@@]2(CCN(C(=O)COc3ccccc3C)C2)C1", "Percent Effect": -27.81}
{"smiles": "COCC(=O)NCCCn1ncc2c(C)cccc21", "Percent Effect": -7.702}
{"smiles": "Cc1csc(CCNc2ccc(C#N)cc2F)n1", "Percent Effect": -14.43}
{"smiles": "COc1nc2c(cc1C(=O)NCCCc1nnc(N)s1)CCC2", "Percent Effect": -32.05}
{"smiles": "CN1CCC(N(Cc2ccncc2)C(=O)COCC2CCCCO2)CC1", "stereo": "stereo not shown", "Percent Effect": -21.91}
{"smiles": "Cc1ccc(-c2c[nH]c([C@@H]3COCCN3Cc3ncc[nH]3)n2)cc1", "Percent Effect": 6.774}
{"smiles": "Cc1cc(C)n(-c2ccc(CNCc3cccc(C#N)c3)cn2)n1", "Percent Effect": -11.68}
{"smiles": "Cc1cc(N2CCc3c(ncn3C3CC3)C2)nc(N)n1", "Percent Effect": -39.32}
{"smiles": "COc1cc(CNCC(O)c2ccc(F)cc2F)cc2c1OCO2", "stereo": "stereo not shown", "Percent Effect": -5.73}
{"smiles": "c1cnn(CCNCc2csc(-c3ccc4c(c3)OCO4)n2)c1", "Percent Effect": -3.791}
{"smiles": "CC(=O)NCCCSC1CCN(c2ccccc2Cl)C1=O", "stereo": "stereo not shown", "Percent Effect": -2.935}
{"smiles": "Cc1cccc(NC(=O)N2CCN(Cc3nnc(C(C)C)o3)CC2)c1", "Percent Effect": -8.446}
{"smiles": "Cc1ccccc1C(=O)N1CC[C@@H](N2CCC(O)CC2)[C@H](O)C1", "Percent Effect": -35.21}
{"smiles": "Cn1cc(C(O)CNC(=O)c2ccc(F)cc2Cl)cn1", "stereo": "stereo not shown", "Percent Effect": -16.85}
{"smiles": "O=C(CCCNC(=O)Nc1ccc(F)cc1F)Nc1cn[nH]c1", "Percent Effect": -6.498}
{"smiles": "Cc1ccc2nc(-c3nc4c([nH]3)CC(C)(C)CNC4=O)cn2c1", "Percent Effect": -8.099}
{"smiles": "CC(C)OCCN(C)C(C)c1cccc(S(N)(=O)=O)c1", "stereo": "stereo not shown", "Percent Effect": -0.5322}
{"smiles": "COc1cccc(CNC(=O)c2nc3c(s2)CCN(C(C)=O)CC3)c1", "Percent Effect": -14.71}
{"smiles": "O=C(c1ccc(-n2ccnc2)cc1)N1CCCC(n2ccnc2)C1", "stereo": "stereo not shown", "Percent Effect": -25.97}
{"smiles": "CC(NC(=O)Nc1ccc(S(C)(=O)=O)cc1)c1ccc2c(c1)CC(=O)N2", "stereo": "stereo not shown", "Percent Effect": -10.75}
{"smiles": "CC(=O)N1CCCn2nc(CNS(=O)(=O)N(C)C(C)C)cc2C1", "Percent Effect": -30.25}
{"smiles": "COc1ccc2c(c1)NC(=O)C2OC(=O)CC(C)(C)C", "stereo": "stereo not shown", "Percent Effect": 0.4529}
{"smiles": "CS(=O)(=O)Cc1ccc(CNC(=O)c2cccnc2O)cc1", "Percent Effect": 0.5733}
{"smiles": "Cc1ccc(C)c(-c2csc(N)c2C#N)c1", "Percent Effect": -33.57}
{"smiles": "N#Cc1cccnc1N1CCCC(CO)(Cc2ccc(F)cc2)C1", "stereo": "stereo not shown", "Percent Effect": -5.659}
{"smiles": "Cc1cc2n(n1)CCN(c1nc(N)nc3c1CCNCC3)C2", "Percent Effect": -14.62}
{"smiles": "c1cnc(N2CCOCC3(CNCCO3)C2)nc1", "stereo": "stereo not shown", "Percent Effect": -25.85}
{"smiles": "O=C(OCc1ccccc1)N1CC[C@H]2CC(CO)O[C@@H]2C1", "stereo": "stereo partly shown", "Percent Effect": -1.552}
{"smiles": "CN1CCCN(c2nccc(-c3c[nH]nc3C3CCCCC3)n2)CC1", "Percent Effect": -5.271}
{"smiles": "COCCN1CCCC1c1cccc2c1OCCO2", "stereo": "stereo not shown", "Percent Effect": -9.21}

3 of the entries, repeated:

{"smiles": "CN(C)c1ccc(C(=O)N2CCCC2c2cnn(C)c2)cn1", "stereo": "stereo not shown", "Percent Effect": -8.664}
{"smiles": "Cc1csc(CCNc2ccc(C#N)cc2F)n1", "Percent Effect": -14.43}
{"smiles": "CC(C(=O)Nc1cccc(Cl)c1SC(F)F)S(C)(=O)=O", "stereo": "stereo not shown", "Percent Effect": -15.34}

Measurements from “University of Dundee, Small-Polar-MMV Screening Library” (2021), ChEMBL document CHEMBL3988442.